The test system of assay [1] is ReNCell VM. The assay is described as follows: neuronal differentiation score (DCX+ cell fraction vs untreated, manual image score) (score (-3 to 3)); higher = more neuronal differentiation. To be noted: 2 uM, 2 weeks.
For assay [2], the system named is ReNCell VM. The assay is described as follows: dopaminergic neuron differentiation score (TH+ cell fraction vs untreated, manual image score) (score (0 to 3)); higher = more TH+ dopaminergic neuron differentiation. The conditions noted are these: 2 uM, 4 weeks, BDNF 10 ng/ml + GDNF 10 ng/ml.

Counter-ions that a name gives are not always drawn. Some of the results follow. This data set is noisy: repeats of one test often differ as much as different tests do.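 Cells: ReNCell VM human fetal ventral-midbrain neural progenitors, differentiated mitogen-free. Blinded raters compared doublecortin-stained (early neurons) or tyrosine hydroxylase-stained (dopaminergic neurons) images with untreated wells, where 0 means no change. After repeats and both raters were averaged, compounds scoring 2 or above became hits for retesting.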

For the molecule `NC(N)=NOCC[C@H](N)C(=O)O` [Canavanine sulfate monohydrate (L,+)], in assay [1] (library: Phytochemical), the neuronal differentiation score is inactive: 1. For the same molecule, in assay [2] (library: Phytochemical), the “dopaminergic neuron differentiation score” value was inactive: 0.
For `COc1cc(C(=O)OC2CC3CCC(C2)N3C)ccc1O` (centres undefined) [Fillalbin], in that order: inactive: 0 and inactive: 0.
For the molecule `CCN1C[C@]2(COC)CC[C@H](OC)[C@]34C5C[C@@H]6[C@@H](OC)C[C@@]7(OCO[C@@]7(C13)[C@@H](O)C24)C5[C@H]6OC` (some centres undefined) [Delcorine], the neuronal differentiation score in assay [1] (library: Phytochemical) was inactive: 0. Also, in assay [2] (library: Phytochemical), the “dopaminergic neuron differentiation score” value was inactive: 0.
For `COc1cc([C@@H]2c3cc4c(cc3[C@H](O)[C@H]3COC(=O)[C@H]23)OCO4)cc(OC)c1OC` [podophyllotoxin], in assay [1] (library: Natural), the neuronal differentiation score is inactive: 0. Besides, in assay [2] (library: Natural), the “dopaminergic neuron differentiation score” value is inactive: 0.
As for `Oc1ccc2c3c1O[C@H]1[C@@H](O)CC[C@@]4(O)[C@@H](C2)N(CC2CCC2)CC[C@]314`, the neuronal differentiation score in assay [1] (library: Spectrum) was inactive: 0. For the same molecule, the “dopaminergic neuron differentiation score” value in assay [2] (library: Spectrum) was inactive: 0.
In the case of `CN1C[C@H](CO)C=C2c3cccc4[nH]cc(c34)C[C@H]21` [Lysergol], the neuronal differentiation score in assay [1] (library: Phytochemical) is inactive: 0. In addition, the “dopaminergic neuron differentiation score” value in assay [2] (library: Phytochemical) was inactive: 0.
As for `Cc1c(O)c(O)cc2c1CC=C1[C@@]2(C)CC[C@@]2(C)[C@@H]3C[C@](C)(C(=O)O)CC[C@]3(C)CC[C@]12C`, the neuronal differentiation score in assay [1] (library: Spectrum) is inactive: 0. Besides, in assay [2] (library: Spectrum), the “dopaminergic neuron differentiation score” value was inactive: 0.
Take `CN[C@@H]1[C@@H](O)[C@@H](O[C@@H]2[C@@H](O)[C@H](O[C@H]3O[C@H](CN)CC[C@H]3N)[C@@H](N)C[C@H]2N)OC[C@]1(C)O.CN[C@@H]1[C@@H](O)[C@@H](O[C@@H]2[C@@H](O)[C@H](O[C@H]3O[C@H]([C@@H](C)N)CC[C@H]3N)[C@@H](N)C[C@H]2N)OC[C@]1(C)O.CN[C@@H]1[C@@H](O)[C@@H](O[C@@H]2[C@@H](O)[C@H](O[C@H]3O[C@H]([C@@H](C)NC)CC[C@H]3N)[C@@H](N)C[C@H]2N)OC[C@]1(C)O`: in assay [1] (library: Spectrum), the neuronal differentiation score is inactive: 0. The “dopaminergic neuron differentiation score” value in assay [2] (library: Spectrum) is inactive: 0.
As for `CC(C)N(CCC(C(N)=O)(c1ccccc1)c1ccccn1)C(C)C` (centres undefined), the neuronal differentiation score in assay [1] (library: Spectrum) is inactive: 0. The “dopaminergic neuron differentiation score” value in assay [2] (library: Spectrum) is inactive: 0.
With `COC(=O)C1=CCCN(C)C1`, the neuronal differentiation score in assay [1] (library: Spectrum) was inactive: 0. The “dopaminergic neuron differentiation score” value in assay [2] (library: Spectrum) is inactive: 0.
For `CN1[C@@H]2CCC[C@H]1CC(=O)C2` [Pseudopelletierine hydrochloride], the neuronal differentiation score in assay [1] (library: Phytochemical) was inactive: 0. The “dopaminergic neuron differentiation score” value in assay [2] (library: Phytochemical) is inactive: 0.
With `CCN(CC)CCO[C@H]1CC[C@@]2(C)C(=CC[C@@H]3[C@@H]2CC[C@]2(C)C(=O)CC[C@@H]32)C1`, the neuronal differentiation score in assay [1] (library: Tocriscreen) was inactive: 0. The “dopaminergic neuron differentiation score” value in assay [2] (library: Tocriscreen) is inactive: 0.
On to `CCCC(C)C1(CC)C(=O)NC(=S)NC1=O` (centres undefined), for which, in assay [1] (library: Spectrum), the neuronal differentiation score was inactive: 0. Further, the “dopaminergic neuron differentiation score” value in assay [2] (library: Spectrum) was inactive: 0.
In the case of `C=C1[C@H]2C[C@@]3([C@@H]1O)[C@@H](C[C@@H]2O)[C@]12[C@@H]4C[C@H]3[C@H]1N(CC)C[C@]4(C)CC[C@@H]2O` [Napelline], the neuronal differentiation score in assay [1] (library: Phytochemical) is active: 2. In assay [2] (library: Phytochemical), the “dopaminergic neuron differentiation score” value was inactive: 0.
In the case of `O=P1(N(CCCl)CCCl)NCCCO1` (centres undefined) [Cyclophosphamide], in assay [1] (library: Prestwick), the neuronal differentiation score is inactive: 0. Further, in assay [2] (library: Prestwick), the “dopaminergic neuron differentiation score” value was inactive: 0.
Turning to `CN(C)c1ccc(/C=C2\CCCN=C2c2cccnc2)cc1` [DMAB-anabaseine dihydrochloride], the neuronal differentiation score in assay [1] (library: Tocriscreen) is inactive: 0. In addition, in assay [2] (library: Tocriscreen), the “dopaminergic neuron differentiation score” value is inactive: 0.
Turning to `CNC(C)(C)Cc1ccccc1` [Mephentermine hemisulfate], the neuronal differentiation score in assay [1] (library: Prestwick) was inactive: 0. For the same molecule, the “dopaminergic neuron differentiation score” value in assay [2] (library: Prestwick) was inactive: 0.
As for `CN(C)C(=O)Oc1ccc[n+](C)c1`, the neuronal differentiation score in assay [1] (library: Spectrum) is inactive: -1. Moreover, the “dopaminergic neuron differentiation score” value in assay [2] (library: Spectrum) was inactive: 0.
Take `COc1cccc(C=O)c1OC`: in assay [1] (library: Spectrum), the neuronal differentiation score was inactive: 0. Moreover, in assay [2] (library: Spectrum), the “dopaminergic neuron differentiation score” value is inactive: 0.
`C[C@@H]1CN([C@H]2CC[C@](C#N)(c3ccc(F)cc3)CC2)CC[C@]1(C(=O)O)c1ccccc1` [Levocabastine hydrochloride]: in assay [1] (library: Prestwick), the neuronal differentiation score was inactive: 0. In assay [2] (library: Prestwick), the “dopaminergic neuron differentiation score” value was inactive: 0.
For `CCCN1CCO[C@@H]2c3cc(O)ccc3OC[C@H]21` [S(+)-PD 128,907 hydrochloride], in assay [1] (library: LOPAC), the neuronal differentiation score was inactive: 0. The “dopaminergic neuron differentiation score” value in assay [2] (library: LOPAC) was inactive: 0.
Regarding `CN(C)CCc1ccc(O)cc1` [Hordenine], in assay [1] (library: Phytochemical), the neuronal differentiation score was inactive: 0. Also, the “dopaminergic neuron differentiation score” value in assay [2] (library: Phytochemical) was inactive: 0.
In the case of `CC(=O)NC1CCSC1=O` (centres undefined), in assay [1] (library: Spectrum), the neuronal differentiation score was inactive: 0. The “dopaminergic neuron differentiation score” value in assay [2] (library: Spectrum) is inactive: 0.
In the case of `O=C(O)/C=C/CO` [trans-4-Hydroxycrotonic acid], in assay [1] (library: Tocriscreen), the neuronal differentiation score is inactive: 0. In assay [2] (library: Tocriscreen), the “dopaminergic neuron differentiation score” value was inactive: 0.
As to `CCCN(CCC)[C@H]1CCc2c(F)ccc(O)c2C1` [S(-)-UH-301 hydrochloride], the neuronal differentiation score in assay [1] (library: LOPAC) was inactive: 0. For the same molecule, the “dopaminergic neuron differentiation score” value in assay [2] (library: LOPAC) was inactive: 0.
On to `CNCCc1ccc(O)c(O)c1` [N-Methyldopamine hydrochloride], for which, in assay [1] (library: LOPAC), the neuronal differentiation score was inactive: 0. Further, the “dopaminergic neuron differentiation score” value in assay [2] (library: LOPAC) was inactive: 0.
Regarding `CCN1C[C@]2(C)CC[C@H](O)[C@]34C1[C@@H](C[C@H]23)[C@@]1(O)C[C@H](OC)[C@H]2C[C@@H]4[C@@H]1[C@H]2O` [Karakoline], in assay [1] (library: Phytochemical), the neuronal differentiation score was inactive: 0. Also, the “dopaminergic neuron differentiation score” value in assay [2] (library: Phytochemical) was inactive: 0.
In the case of `C=C(C)[C@H]1CN[C@H](C(=O)O)[C@H]1CC(=O)O`, the neuronal differentiation score in assay [1] (library: Spectrum) was inactive: 0. Moreover, in assay [2] (library: Spectrum), the “dopaminergic neuron differentiation score” value was inactive: 0.
Turning to `N=C1NC(=O)N2CC12` (centres undefined), the neuronal differentiation score in assay [1] (library: Spectrum) is inactive: 0. Further, the “dopaminergic neuron differentiation score” value in assay [2] (library: Spectrum) is inactive: 0.
Turning to `C[C@@H]1CC[C@H]2[C@@H](C)C(=O)O[C@@H]3O[C@@]4(C)CC[C@@H]1[C@]32OO4` [artemisinin], in assay [1] (library: Natural), the neuronal differentiation score was inactive: 0. The “dopaminergic neuron differentiation score” value in assay [2] (library: Natural) is inactive: 0.
Consider `OCc1cnc[nH]1` [4-Imidazolemethanol hydrochloride], for which the neuronal differentiation score in assay [1] (library: LOPAC) was inactive: 0. In addition, in assay [2] (library: LOPAC), the “dopaminergic neuron differentiation score” value was inactive: 0.
Regarding `C[C@@H]1CC[C@]2(NC1)O[C@H]1C[C@H]3[C@@H]4CC=C5C[C@@H](O)CC[C@]5(C)[C@H]4CC[C@]3(C)[C@H]1[C@@H]2C`, the neuronal differentiation score in assay [1] (library: Spectrum) is inactive: 0. The “dopaminergic neuron differentiation score” value in assay [2] (library: Spectrum) was inactive: 0.

The values are drawn from the supplement of paper PMC4635364.
